Measurements from PubChem BioAssay AID720504 (National Center for Advancing Translational Sciences (NCATS), 2013).
The whole screen tested about 360,000 compounds, of which about 10,000 (2.8%) were called active. This list was built around the results that the source calls inconclusive (neither active nor inactive); the mix of calls is not that of the screen. The call rests on the fitted dose curve; in most records, active means well fitted inhibition curve with a large enough effect; inconclusive means small, poorly fitted or top-dose-only effect; inactive means flat fitted curve, though single readings scatter. A potency beside an inconclusive call is a rough fit, not a confirmed value.

Protein sequences, listed by entry. Tags and fused reporters are not part of them.
UniProt P53350, whole entry, looked up: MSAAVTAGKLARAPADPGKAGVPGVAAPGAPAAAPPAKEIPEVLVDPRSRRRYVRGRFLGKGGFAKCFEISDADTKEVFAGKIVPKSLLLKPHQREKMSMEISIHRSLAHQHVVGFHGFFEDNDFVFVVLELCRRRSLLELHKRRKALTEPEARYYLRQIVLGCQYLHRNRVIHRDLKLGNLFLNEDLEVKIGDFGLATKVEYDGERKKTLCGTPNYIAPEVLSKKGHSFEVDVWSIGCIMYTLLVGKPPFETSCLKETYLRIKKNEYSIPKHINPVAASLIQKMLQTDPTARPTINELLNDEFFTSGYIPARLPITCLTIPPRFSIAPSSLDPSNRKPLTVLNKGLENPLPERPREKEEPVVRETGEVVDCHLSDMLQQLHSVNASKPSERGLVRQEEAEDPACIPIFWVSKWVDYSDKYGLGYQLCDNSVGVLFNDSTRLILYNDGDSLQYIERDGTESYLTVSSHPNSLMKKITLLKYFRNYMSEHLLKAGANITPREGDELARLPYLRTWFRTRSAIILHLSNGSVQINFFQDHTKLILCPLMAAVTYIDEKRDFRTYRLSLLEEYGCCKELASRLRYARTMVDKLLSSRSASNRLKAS

Target: Serine/threonine-protein kinase PLK1 (Homo sapiens) (UniProt P53350)
Test: qHTS for Inhibitors of PLK1-PDB (polo-like kinase 1 - polo-box domain): Primary Screen; further: nearly all actives have a fitted effect of over 65% in size; on max response, negative = inhibition: series mostly up to about 57 µM
Conditions: Plk1 PBD binding of FITC phosphopeptide, fluorescence polarization
On the % scale 0 is the no-effect control and ±100 the full control effect; potency means the concentration at half of the fitted maximal effect.

Row | SMILES | Potency | max response, negative = inhibition
1 | CSc1ccccc1C(=O)Nc1cc2c(cc1C(=O)O)OCCCO2 | active: 29.9 µM | 
2 | O=C(NNS(=O)(=O)c1ccccc1[N+](=O)[O-])c1cccc([N+](=O)[O-])c1 | active: 16.8 µM | 
3 | COc1cccc(/C=N/n2c(-c3n[nH]c4c3CCC4)n[nH]c2=S)c1OC | inconclusive: 26.7 µM [inhibitor, partial curve] | 
4 | CCC(=O)Nc1ccc(N2CCOCC2)c(S(=O)(=O)Nc2ccc(OC)cc2)c1 |  | inactive: -10.6%
5 | CCN1CCN(S(=O)(=O)c2ccc(Cl)c(C(=O)N(CC)Cc3ccccc3)c2)CC1 |  | inactive: 2.31%
6 | COc1ccc(-c2csc(NC(=O)C3CC(=O)N(Cc4ccccc4)C3)n2)cc1OC (stereo unspecified) |  | inactive: -5.74%
7 | CC1Sc2ccc(S(=O)(=O)CCC(=O)N3CCc4ccccc43)cc2NC1=O (stereo unspecified) | active: 29.9 µM | 
8 | Cc1ccc(/C=[N+](\[O-])c2ccc(N(C)C)cc2)c2nsnc12 | inconclusive: 37.7 µM [inhibitor, single point] | 
9 | Cc1cc(NS(=O)(=O)c2ccc(NC(=S)NC(=O)c3cccc(S(=O)(=O)N(C)C)c3)cc2)no1 | inconclusive: 29.9 µM [inhibitor, single point] | 
10 | O=C(COC(=O)c1cc(Br)ccc1O)NNC(=O)c1ccc(Cl)cc1 |  | inactive: -2.15%
11 | Cc1c(Nc2nc(-c3ccc(Cl)cc3)cs2)c(=O)n(-c2ccccc2)n1C |  | inactive: -8.23%
12 | CC(C)CCn1c(SCC(=O)Nc2ccccc2C(F)(F)F)nc2nccnc2c1=O |  | inactive: -19.8%
13 | O=C1C2CC=C(Cl)CC2C(=O)N1CCCCCCN1C(=O)C2CC=C(Cl)CC2C1=O (stereo unspecified) | inconclusive: 37.7 µM [inhibitor, single point] | 
14 | Cc1c(CC(=O)O)c(=O)oc2c(C)c3occ(-c4ccc(Br)cc4)c3cc12 | active: 29.9 µM | 
15 | CC(=NNC(=S)N1CCCCC1)c1cccc(C)n1 | inconclusive: 23.8 µM [inhibitor, partial curve] | 
16 | CCc1ccc(NC(=O)CSc2nc(CSc3ccc(C)cc3)cc(=O)[nH]2)cc1 | inconclusive: 42.3 µM [inhibitor, single point] | 
17 | O=C(OCc1cn([C@@H]2C[C@H](c3ccccc3)N(Cc3cccs3)C[C@H]2O)nn1)c1ccccc1 |  | inactive: 4.96%
18 | CN(C)S(=O)(=O)c1ccc2c(c1)Cc1cc(S(=O)(=O)N(C)C)ccc1-2 | inconclusive: 33.6 µM [inhibitor, single point] | 
19 | COc1ccc(S(=O)(=O)Nc2nnc(C(C)C)s2)cc1 | inconclusive: 26.7 µM [inhibitor, partial curve] | 
20 | NC(=O)c1cc(S(=O)(=O)NCCCc2ccccc2)cs1 | active: 26.7 µM | 
21 | CC(Sc1ccccn1)C(=O)Nc1ccc(S(N)(=O)=O)cc1 (stereo unspecified) | inconclusive: 31.6 µM [inhibitor, single point] | 
22 | O=S(=O)(NC(=S)c1ccccc1)c1ccccc1 | inconclusive: 18.9 µM [inhibitor, partial curve] | 
23 | CCCCCCCCCCCCCC(=O)O | inconclusive: 29.9 µM [inhibitor, single point] | 

Four entries from above, with tabs:
Row	SMILES	Potency	max response, negative = inhibition
19	COc1ccc(S(=O)(=O)Nc2nnc(C(C)C)s2)cc1	inconclusive: 26.7 µM [inhibitor, partial curve]	
20	NC(=O)c1cc(S(=O)(=O)NCCCc2ccccc2)cs1	active: 26.7 µM	
21	CC(Sc1ccccn1)C(=O)Nc1ccc(S(N)(=O)=O)cc1 (stereo unspecified)	inconclusive: 31.6 µM [inhibitor, single point]	
22	O=S(=O)(NC(=S)c1ccccc1)c1ccccc1	inconclusive: 18.9 µM [inhibitor, partial curve]	

(cont.)

Row | SMILES | Potency | max response, negative = inhibition
24 | O=C(CCc1nc2ccccc2[nH]1)N1CCc2ccccc2C1 |  | inconclusive: -32.2% [inhibitor]
25 | CNc1nc(-c2ccc3c(c2)CCN3C(=O)CC(C)(C)C)c(C)s1 | inconclusive: 26.7 µM [inhibitor, partial curve] | 
26 | O=c1c2c3c(sc2n2cnnc2n1Cc1ccccc1)CN(Cc1ccccc1)CC3 | inconclusive: 26.7 µM [inhibitor, partial curve] | 
27 | NC(=O)c1ccsc1NC(=O)c1coc2ccccc2c1=O | inconclusive: 1.06 µM [inhibitor, full curve] | 
28 | CCOC(=O)C1CCN(Cc2c(O)ccc3ccccc23)CC1 | inconclusive: 21.2 µM [inhibitor, partial curve] | 
29 | CS(=O)(=O)N(CC(=O)NCc1ccco1)Cc1ccc(Cl)cc1 | inconclusive: 29.9 µM [inhibitor, partial curve] | 
30 | COc1ccc(C(=O)NC(Oc2ccccc2)C(Cl)(Cl)Cl)cc1 (stereo unspecified) |  | inconclusive: -34.5% [inhibitor]
31 | OCCC1CN(C2CCC2)CCN1Cc1ccc(F)c(F)c1 (stereo unspecified) |  | inactive: -14.3%
32 | CCCS(=O)(=O)N1CCN(C(=O)COc2ccc(-c3ccccc3)cc2)CC1 | inconclusive: 26.7 µM [inhibitor, partial curve] | 
33 | O=C(Nc1ccc(N2CCCCC2)cc1)c1cc(S(=O)(=O)N2CCOCC2)ccc1F |  | inactive: 1.97%
34 | CN(C(=O)COC(=O)c1ccc(NS(=O)(=O)c2cccs2)cc1)C1CCCCC1 | inconclusive: 23.8 µM [inhibitor, single point] | 
35 | c1cc2c(cc1CN1CCOCC1)OCO2 |  | inactive: -6.55%
36 | O=[N+]([O-])c1cccc2c(N3CCOCC3)ccnc12 |  | inactive: -1.1%
37 | COc1ccc(N2CCN(C(=O)c3ccc(CS(=O)(=O)c4ccc(OC)cc4)o3)CC2)cc1 |  | inactive: -12%
38 | COc1ccc(S(=O)(=O)Nc2cccc3c2O[C@@H](CN(C)Cc2ccc(C(=O)O)cc2)[C@@H](C)CN([C@H](C)CO)C3=O)cc1 |  | inactive: -8.36%
39 | CCCCOC(=O)Nc1ccc(C(C)C)cc1 |  | inactive: -7.11%
40 | COc1ccc(CC(=O)Nc2ccc(N3CCN(c4ccc(OC)cc4)CC3)c(C#N)c2)cc1 | inconclusive: 26.7 µM [inhibitor, single point] | 
41 | O=C(Cn1cnc2c(OCc3ccccc3)ncnc21)NCc1ccccc1 | active: 23.8 µM | 
42 | COc1ccc(NS(=O)(=O)c2cccc(C(=O)N3CCOCC3)c2)cc1 | inconclusive: 29.9 µM [inhibitor, partial curve] | 
43 | CNCc1ccccc1Sc1ccc(O)c(O)c1 | inconclusive: 37.7 µM [inhibitor, single point] | 
44 | Cc1nc(C)c(-c2csc(Nc3ccc(O)c(C(=O)O)c3)n2)s1 | inconclusive: 29.9 µM [inhibitor, partial curve] | 
45 | O=C(O)c1cccc2c1/C(=N/O)c1ccccc1-2 |  | inactive: -11.5%
46 | CC1(C(=O)Nc2ccccc2)CCN1C(=O)CCc1ccc(Cl)cc1Cl (stereo unspecified) |  | inactive: -12.3%
